Patent US8497133B1, “Terpene media compositions for eluting compounds from matrices and methods for making and using them” (Medtronic MiniMed, Inc., priority 2009, dated 2013)
At least one compound was matched to its structure with a doubt left.

Assay: Elution of steroid from drug eluting leads/electrodes in conventional media (PBS without additives)
Format: physicochemical
Conditions: conventional media systems, e.g. media with just a surfactant; result in words
From the text: The percent elution was less than 7% in 10 days from the controlled-release device (CRD) leads when PBS ([…]) without any additives was used.

With `CC(=O)OCC(=O)[C@@]1(O)[C@H](C)C[C@H]2[C@@H]3CCC4=CC(=O)C=C[C@]4(C)[C@@]3(F)[C@@H](O)C[C@@]21C` [dexamethasone acetate] the “elution in conventional media/solvents” value was “minimal”.
